Assay [1] deals with FLAG-tagged FIH fragment 1-349 (human), Q9NWT6. Description: co-IP; FIH fragments (1-164, 1-295, 1-349) expressed in HEK293; lysates immunoprecipitated and immunoblotted. To be noted: remark: other sources report otherwise.
In assay [2] the target is Factor Inhibiting HIF (FIH), endogenous (human (endogenous in HEK293)), Q9NWT6. The experiment in a line: co-IP; HEK293 lysates incubated with anti-FIH or anti-NAA10 antibody overnight at 4 °C, protein A/G beads, immunoblot; also after 2 mM DMOG for 6 h or lowered oxygen for 24 h (interaction reinforced). To be noted: remark: other sources report otherwise. (In general: In western blotting, separated proteins are transferred to a membrane and probed.)

The target of the next assay is HA-FIH (human), Q9NWT6. Description: co-IP; HEK293 transfected with HA-FIH and/or FLAG/SBP-NAA10; lysates on anti-HA or anti-FLAG affinity gel, 4 °C, 4 h; immunoblot. To be noted: remark: other sources report otherwise.
The target of assay [3] is GST-FIH (human), Q9NWT6. Description: pull-down; in vitro binding and acetylation assay: GST-FIH (0.5 μg) with His-NAA10 (0.5 μg) in acetylation buffer (50 mM Tris pH 8.0, 400 μM acetyl CoA), 37 °C, 2 h; GST-FIH pulled down on glutathione beads; Western blot; both purified. To be noted: remark: other sources report otherwise.
For assay [4], the target named is GST-FIH (human), Q9NWT6. The experiment in a line: pull-down; GST-FIH (0.5 μg) and His-NAA10 (0.5 μg) in binding buffer (25 mM HEPES pH 7.5, 150 mM KCl, 12.5 mM MgCl2, 0.5 mM DTT, 0.1% NP-40, 10% glycerol), 4 °C, 1 h; glutathione affinity beads; Western blot; both purified. To be noted: remark: other sources report otherwise.
The target of assay [5] is T1, FLAG-tagged FIH fragment 1-295 (human) (UniProt Q9NWT6).
T1 sequence: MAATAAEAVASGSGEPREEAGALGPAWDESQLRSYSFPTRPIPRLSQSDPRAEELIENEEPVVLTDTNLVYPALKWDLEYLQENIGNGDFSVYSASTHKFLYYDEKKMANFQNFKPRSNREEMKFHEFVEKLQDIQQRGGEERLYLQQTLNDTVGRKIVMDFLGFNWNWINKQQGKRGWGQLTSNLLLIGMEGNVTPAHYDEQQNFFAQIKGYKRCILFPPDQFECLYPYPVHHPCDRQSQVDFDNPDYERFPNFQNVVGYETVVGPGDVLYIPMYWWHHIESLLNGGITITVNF
The experiment in a line: co-IP; FIH fragments (1-164, 1-295, 1-349) expressed in HEK293; lysates immunoprecipitated and immunoblotted.

The target in assay [6] is T2, NAA10, endogenous (human (endogenous in HEK293)), P41227.
T2 chain: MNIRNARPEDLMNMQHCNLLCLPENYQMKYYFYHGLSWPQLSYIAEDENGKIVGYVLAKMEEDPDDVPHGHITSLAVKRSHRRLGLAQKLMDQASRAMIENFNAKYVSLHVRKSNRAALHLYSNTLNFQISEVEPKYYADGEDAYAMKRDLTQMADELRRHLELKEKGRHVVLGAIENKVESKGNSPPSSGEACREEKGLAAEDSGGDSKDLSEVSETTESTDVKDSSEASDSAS
The experiment in a line: co-IP; HEK293 lysates incubated with anti-FIH or anti-NAA10 antibody overnight at 4 °C, protein A/G beads, immunoblot; also after 2 mM DMOG for 6 h or lowered oxygen for 24 h (interaction reinforced). To be noted: remark: other sources report otherwise.

Assay [7] concerns the target T3, FLAG/SBP-NAA10 (human), P41227.
T3 chain: T2 chain
Description: co-IP; HEK293 transfected with HA-FIH and/or FLAG/SBP-NAA10; lysates on anti-HA or anti-FLAG affinity gel, 4 °C, 4 h; immunoblot. To be noted: remark: other sources report otherwise.

These are yes or no findings as the source states them, for the method shown. For some assays here: In cells and extracts the contact can be indirect. Some entries that bind do so weakly or less than the wild type. For some assays here: Tags and fused reporters may be left off the sequences shown.

We go through 6 molecules from article PMC6142190.

B1: NAA10, endogenous, P41227 1-235 (enzyme)
chain: T2 chain
Take B1: the binding result in assay [1] and in assay [2] was “binds” throughout.

B2: FLAG/SBP-NAA10, P41227-1 1-235 (enzyme)
chain: T2 chain
As for B2, the binding result with HA-FIH (human), Q9NWT6 is “binds”.

B3: His(6)-NAA10 WT, P41227-1 1-235 (enzyme)
chain: T2 chain
For the molecule B3, the binding result was “binds” with GST-FIH (human), Q9NWT6 [3] and “binds” in the assay with GST-FIH (human), Q9NWT6 [4].

B4: NAA10, endogenous (enzyme, UniProt P41227 1-235)
chain: T2 chain
B4: in assay [5], the binding entry is on record as “binds”.

B5: Factor Inhibiting HIF (FIH), endogenous, Q9NWT6 1-349 (enzyme)
chain: MAATAAEAVASGSGEPREEAGALGPAWDESQLRSYSFPTRPIPRLSQSDPRAEELIENEEPVVLTDTNLVYPALKWDLEYLQENIGNGDFSVYSASTHKFLYYDEKKMANFQNFKPRSNREEMKFHEFVEKLQDIQQRGGEERLYLQQTLNDTVGRKIVMDFLGFNWNWINKQQGKRGWGQLTSNLLLIGMEGNVTPAHYDEQQNFFAQIKGYKRCILFPPDQFECLYPYPVHHPCDRQSQVDFDNPDYERFPNFQNVVGYETVVGPGDVLYIPMYWWHHIESLLNGGITITVNFWYKGAPTPKRIEYPLKAHQKVAIMRNIEKMLGEALGNPQEVGPLLNTMIKGRYN
Consider B5, for which the binding result in assay [6] is reported as “binds”.

B6: HA-FIH, Q9NWT6 1-349 (enzyme)
chain: B5 chain
B6: in assay [7], the binding result is recorded as “binds”.
